In doi:10.1101/2020.05.23.111989 one finds binding data, which are given here for two molecules.

The chains behind the UniProt entries cited, without tags or fusion partners.
UniProt Q15691: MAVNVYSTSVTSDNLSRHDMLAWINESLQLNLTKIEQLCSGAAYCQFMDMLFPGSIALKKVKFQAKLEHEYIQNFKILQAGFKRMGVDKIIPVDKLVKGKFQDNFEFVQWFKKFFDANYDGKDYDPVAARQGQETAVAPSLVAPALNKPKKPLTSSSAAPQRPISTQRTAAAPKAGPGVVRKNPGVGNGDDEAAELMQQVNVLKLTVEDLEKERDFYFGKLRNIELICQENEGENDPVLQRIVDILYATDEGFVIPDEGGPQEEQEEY

Holding throughout (assay): pull-down
Assay [1] concerns the target EB1-GST (UniProt Q15691).
In assay [2] the target is EB1-GST (UniProt Q15691). The source holds these as a separate data set.
Assay [3] addresses EB1-GST phosphorylated with Cdk1-Cyclin B (UniProt Q15691).

Like-named read-outs stand apart in the source and are kept apart here. No constants are given. Whether binding was seen depends on the method and setting. For some of these results: In cells and extracts the contact can be indirect. Some entries that bind do so weakly or less than the wild type.

B1: GTSE1 (endogenous, U2OS cell extract) (protein, UniProt Q9NYZ3 1-739)
chain: MEGGGGRDEPSACRAGDVNMDDPKKEDILLLADEKFDFDLSLSSSSANEDDEVFFGPFGHKERCIAASLELNNPVPEQPPLPTSESPFAWSPLAGEKFVEVYKEAHLLALHIESSSRNQAAQAAKPEDPRSQGVERFIQESKLKINLFEKEKEMKKSPTSLKRETYYLSDSPLLGPPVGEPRLLASSPALPSSGAQARLTRAPGPPHSAHALPRESCTAHAASQAATQRKPGTKLLLPRAASVRGRSIPGAAEKPKKEIPASPSRTKIPAEKESHRDVLPDKPAPGAVNVPAAGSHLGQGKRAIPVPNKLGLKKTLLKAPGSTSNLARKSSSGPVWSGASSACTSPAVGKAKSSEFASIPANSSRPLSNISKSGRMGPAMLRPALPAGPVGASSWQAKRVDVSELAAEQLTAPPSASPTQPQTPEGGGQWLNSSCAWSESSQLNKTRSIRRRDSCLNSKTKVMPTPTNQFKIPKFSIGDSPDSSTPKLSRAQRPQSCTSVGRVTVHSTPVRRSSGPAPQSLLSAWRVSALPTPASRRCSGLPPMTPKTMPRAVGSPLCVPARRRSSEPRKNSAMRTEPTRESNRKTDSRLVDVSPDRGSPPSRVPQALNFSPEESDSTFSKSTATEVAREEAKPGGDAAPSEALLVDIKLEPLAVTPDAASQPLIDLPLIDFCDTPEAHVAVGSESRPLIDLMTNTPDMNKNVAKPSPVVGQLIDLSSPLIQLSPEADKENVDSPLLKF
For B1, the binding entry in assay [1] and in assay [2] was “binds” each time.

B2: Full length GTSE1 (purified, unphosphorylated) (protein, UniProt Q9NYZ3 1-739)
chain: MEGGGGRDEPSACRAGDVNMDDPKKEDILLLADEKFDFDLSLSSSSANEDDEVFFGPFGHKERCIAASLELNNPVPEQPPLPTSESPFAWSPLAGEKFVEVYKEAHLLALHIESSSRNQAAQAAKPEDPRSQGVERFIQESKLKINLFEKEKEMKKSPTSLKRETYYLSDSPLLGPPVGEPRLLASSPALPSSGAQARLTRAPGPPHSAHALPRESCTAHAASQAATQRKPGTKLLLPRAASVRGRSIPGAAEKPKKEIPASPSRTKIPAEKESHRDVLPDKPAPGAVNVPAAGSHLGQGKRAIPVPNKLGLKKTLLKAPGSTSNLARKSSSGPVWSGASSACTSPAVGKAKSSEFASIPANSSRPLSNISKSGRMGPAMLRPALPAGPVGASSWQAKRVDVSELAAEQLTAPPSASPTQPQTPEGGGQWLNSSCAWSESSQLNKTRSIRRRDSCLNSKTKVMPTPTNQFKIPKFSIGDSPDSSTPKLSRAQRPQSCTSVGRVTVHSTPVRRSSGPAPQSLLSAWRVSALPTPASRRCSGLPPMTPKTMPRAVGSPLCVPARRRSSEPRKNSAMRTEPTRESNRKTDSRLVDVSPDRGSPPSRVPQALNFSPEESDSTFSKSTATEVAREEAKPGGDAAPSEALLVDIKLEPLAVTPDAASQPLIDLPLIDFCDTPEAHVAVGSESRPLIDLMTNTPDMNKNVAKPSPVVGQLIDLSSPLIQLSPEADKENVDSPLLKF
Turning to B2, the binding result in assay [3] and in assay [2] was “binds” in each case.
